Data on one molecule can be found in paper PMC12519261.

Amino acid sequences for entries named in this document (tags omitted). Residues count along the entry.
UniProt Q07021, residues 74-282: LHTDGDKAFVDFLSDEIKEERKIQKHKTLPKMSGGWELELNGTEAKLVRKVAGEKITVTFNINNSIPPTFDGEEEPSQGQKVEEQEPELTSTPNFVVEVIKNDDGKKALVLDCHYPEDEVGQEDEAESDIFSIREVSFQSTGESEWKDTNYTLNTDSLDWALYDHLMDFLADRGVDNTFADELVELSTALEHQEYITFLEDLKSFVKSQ

No constants are given. Whether binding was seen depends on the method and setting. Some results given as binding are weak or reduced against the parent protein; the word gives no strength.

This experiment deals with recombinant p32 protein (UniProt Q07021). In words: pull-down; Ni-NTA magnetic agarose beads coated with p32 (15 ug protein/10 uL beads); fluorescent HLPNs incubated 1 h at room temperature without uPA; 0.05% Tween-20 and 5 mM imidazole in PBS pH 7.4; eluted with 400 mM imidazole, fluorescence of the eluate read; both purified.

Consider AKRGARSTA (FAM (carboxyfluorescein) label; conjugated to the surface of HLPNs) [LinTT1 peptide (FAM-labeled) conjugated to hybrid lipid-polymer nanoparticles (LinTT1-HLPNs)], for which the binding entry is given as “binds”.
